The text below walks through data of article PMC5338925.

Chains of the proteins cited; added tags and fusions are not shown. Lines headed by an entry give the natural chain unless they say otherwise; changes in a name come on top. A line that says so, or that is headed by a name, gives the form on record, which may keep a tag or linker.
GFP-Nup98^1–920 (P52948, form named): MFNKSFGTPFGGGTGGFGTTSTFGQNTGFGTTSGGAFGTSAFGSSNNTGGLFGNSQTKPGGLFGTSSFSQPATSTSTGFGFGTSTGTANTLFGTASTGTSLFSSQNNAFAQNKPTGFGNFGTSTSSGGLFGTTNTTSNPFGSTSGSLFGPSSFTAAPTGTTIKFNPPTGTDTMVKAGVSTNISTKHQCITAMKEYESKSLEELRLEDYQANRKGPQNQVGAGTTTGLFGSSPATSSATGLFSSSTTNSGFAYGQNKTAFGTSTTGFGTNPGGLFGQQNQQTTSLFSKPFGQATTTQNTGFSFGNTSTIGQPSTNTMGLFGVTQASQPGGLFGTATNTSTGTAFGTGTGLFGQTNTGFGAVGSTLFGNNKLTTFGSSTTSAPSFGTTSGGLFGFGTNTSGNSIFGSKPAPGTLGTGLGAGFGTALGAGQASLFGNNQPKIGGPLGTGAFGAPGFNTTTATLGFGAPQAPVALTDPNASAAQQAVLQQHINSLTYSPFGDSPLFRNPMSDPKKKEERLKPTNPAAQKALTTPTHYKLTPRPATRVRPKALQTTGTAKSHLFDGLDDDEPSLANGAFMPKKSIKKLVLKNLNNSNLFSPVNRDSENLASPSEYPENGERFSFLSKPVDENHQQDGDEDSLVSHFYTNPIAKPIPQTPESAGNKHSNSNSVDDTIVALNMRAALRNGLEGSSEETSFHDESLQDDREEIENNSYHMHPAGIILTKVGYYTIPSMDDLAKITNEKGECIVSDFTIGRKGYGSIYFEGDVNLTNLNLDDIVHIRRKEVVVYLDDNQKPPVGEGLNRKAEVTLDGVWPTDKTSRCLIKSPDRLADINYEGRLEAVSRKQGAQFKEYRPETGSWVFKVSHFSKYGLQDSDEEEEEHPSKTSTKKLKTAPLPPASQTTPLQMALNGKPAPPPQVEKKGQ
UniProt O14980: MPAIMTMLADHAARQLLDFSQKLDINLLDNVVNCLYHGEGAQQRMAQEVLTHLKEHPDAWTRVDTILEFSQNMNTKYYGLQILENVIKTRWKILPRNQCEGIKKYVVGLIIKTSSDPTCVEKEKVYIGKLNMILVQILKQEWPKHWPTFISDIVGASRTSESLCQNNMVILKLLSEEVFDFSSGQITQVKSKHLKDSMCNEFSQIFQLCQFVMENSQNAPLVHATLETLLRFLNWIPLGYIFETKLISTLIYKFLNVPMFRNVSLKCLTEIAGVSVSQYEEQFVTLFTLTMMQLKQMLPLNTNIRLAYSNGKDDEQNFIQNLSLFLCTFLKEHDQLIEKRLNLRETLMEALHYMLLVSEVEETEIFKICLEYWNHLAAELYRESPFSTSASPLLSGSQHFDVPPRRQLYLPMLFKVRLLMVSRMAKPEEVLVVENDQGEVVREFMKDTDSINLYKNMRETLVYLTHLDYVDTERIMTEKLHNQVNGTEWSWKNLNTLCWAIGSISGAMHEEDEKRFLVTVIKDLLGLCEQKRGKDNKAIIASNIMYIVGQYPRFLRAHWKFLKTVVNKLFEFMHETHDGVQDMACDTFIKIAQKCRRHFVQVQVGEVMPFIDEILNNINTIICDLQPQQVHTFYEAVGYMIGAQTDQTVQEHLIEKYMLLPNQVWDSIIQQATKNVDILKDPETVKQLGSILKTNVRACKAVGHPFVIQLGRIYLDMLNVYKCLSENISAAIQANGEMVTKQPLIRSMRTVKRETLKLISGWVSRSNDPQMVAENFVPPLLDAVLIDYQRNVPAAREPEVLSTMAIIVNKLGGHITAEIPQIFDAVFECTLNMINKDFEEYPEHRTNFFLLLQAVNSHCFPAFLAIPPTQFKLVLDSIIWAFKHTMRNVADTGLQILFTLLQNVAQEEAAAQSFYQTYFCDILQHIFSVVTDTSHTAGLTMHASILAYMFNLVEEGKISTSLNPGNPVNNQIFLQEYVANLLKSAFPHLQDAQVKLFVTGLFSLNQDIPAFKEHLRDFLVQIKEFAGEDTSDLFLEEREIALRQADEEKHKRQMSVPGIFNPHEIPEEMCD
UniProt P17844: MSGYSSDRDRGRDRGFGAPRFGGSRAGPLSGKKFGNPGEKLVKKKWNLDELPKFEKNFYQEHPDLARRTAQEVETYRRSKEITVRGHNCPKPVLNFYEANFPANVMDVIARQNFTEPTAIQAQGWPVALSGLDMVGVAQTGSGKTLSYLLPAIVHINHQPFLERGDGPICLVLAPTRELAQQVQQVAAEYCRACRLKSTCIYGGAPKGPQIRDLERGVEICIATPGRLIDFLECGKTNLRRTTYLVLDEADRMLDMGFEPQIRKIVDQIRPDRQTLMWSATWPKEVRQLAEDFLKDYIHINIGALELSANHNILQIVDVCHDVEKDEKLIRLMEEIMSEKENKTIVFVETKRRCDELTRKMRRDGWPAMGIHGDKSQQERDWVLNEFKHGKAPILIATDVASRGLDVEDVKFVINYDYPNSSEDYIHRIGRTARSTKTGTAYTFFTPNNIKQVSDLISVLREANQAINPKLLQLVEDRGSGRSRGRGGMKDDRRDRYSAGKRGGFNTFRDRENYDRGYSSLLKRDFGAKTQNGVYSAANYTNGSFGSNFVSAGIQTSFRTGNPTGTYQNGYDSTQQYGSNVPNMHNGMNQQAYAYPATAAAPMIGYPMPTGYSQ
UniProt Q92841: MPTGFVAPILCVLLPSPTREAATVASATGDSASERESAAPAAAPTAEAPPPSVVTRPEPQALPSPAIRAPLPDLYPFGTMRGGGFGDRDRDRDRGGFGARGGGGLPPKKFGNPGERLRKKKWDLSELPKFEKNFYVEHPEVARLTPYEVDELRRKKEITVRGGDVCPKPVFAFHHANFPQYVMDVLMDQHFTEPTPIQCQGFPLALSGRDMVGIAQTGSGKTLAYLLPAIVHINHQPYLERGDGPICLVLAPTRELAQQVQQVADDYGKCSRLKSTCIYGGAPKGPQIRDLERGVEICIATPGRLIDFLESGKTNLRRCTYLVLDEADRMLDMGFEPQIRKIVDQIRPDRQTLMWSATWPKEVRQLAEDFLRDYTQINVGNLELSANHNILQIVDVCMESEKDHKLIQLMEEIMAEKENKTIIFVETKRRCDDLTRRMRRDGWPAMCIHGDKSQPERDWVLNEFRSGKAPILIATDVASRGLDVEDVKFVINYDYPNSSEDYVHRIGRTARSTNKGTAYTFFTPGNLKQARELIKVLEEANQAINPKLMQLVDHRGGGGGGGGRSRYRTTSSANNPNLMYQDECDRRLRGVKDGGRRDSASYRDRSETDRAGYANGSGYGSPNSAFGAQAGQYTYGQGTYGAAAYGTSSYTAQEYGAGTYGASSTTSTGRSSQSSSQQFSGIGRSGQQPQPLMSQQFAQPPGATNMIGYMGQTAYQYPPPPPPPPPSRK
UniProt Q9NR30: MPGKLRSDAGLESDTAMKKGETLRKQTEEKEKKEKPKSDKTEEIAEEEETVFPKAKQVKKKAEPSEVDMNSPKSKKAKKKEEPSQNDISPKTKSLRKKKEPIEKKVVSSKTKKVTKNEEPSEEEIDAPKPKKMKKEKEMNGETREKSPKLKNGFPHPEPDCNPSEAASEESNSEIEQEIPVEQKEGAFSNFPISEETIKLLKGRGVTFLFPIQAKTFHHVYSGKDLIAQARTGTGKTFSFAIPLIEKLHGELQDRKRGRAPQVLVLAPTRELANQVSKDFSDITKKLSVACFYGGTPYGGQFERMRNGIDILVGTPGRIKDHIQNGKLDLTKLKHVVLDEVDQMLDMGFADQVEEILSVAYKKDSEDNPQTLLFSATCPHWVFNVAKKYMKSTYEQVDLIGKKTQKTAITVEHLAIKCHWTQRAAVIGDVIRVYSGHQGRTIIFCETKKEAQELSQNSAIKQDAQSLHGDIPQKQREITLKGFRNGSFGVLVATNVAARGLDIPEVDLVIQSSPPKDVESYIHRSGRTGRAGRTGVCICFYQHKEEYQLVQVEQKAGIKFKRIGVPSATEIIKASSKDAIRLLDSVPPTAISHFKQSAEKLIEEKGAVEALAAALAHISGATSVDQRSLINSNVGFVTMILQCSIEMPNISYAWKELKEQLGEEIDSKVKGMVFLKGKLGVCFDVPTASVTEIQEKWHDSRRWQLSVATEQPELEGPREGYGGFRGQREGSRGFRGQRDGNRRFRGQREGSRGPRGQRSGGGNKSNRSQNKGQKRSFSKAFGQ
UniProt O43143: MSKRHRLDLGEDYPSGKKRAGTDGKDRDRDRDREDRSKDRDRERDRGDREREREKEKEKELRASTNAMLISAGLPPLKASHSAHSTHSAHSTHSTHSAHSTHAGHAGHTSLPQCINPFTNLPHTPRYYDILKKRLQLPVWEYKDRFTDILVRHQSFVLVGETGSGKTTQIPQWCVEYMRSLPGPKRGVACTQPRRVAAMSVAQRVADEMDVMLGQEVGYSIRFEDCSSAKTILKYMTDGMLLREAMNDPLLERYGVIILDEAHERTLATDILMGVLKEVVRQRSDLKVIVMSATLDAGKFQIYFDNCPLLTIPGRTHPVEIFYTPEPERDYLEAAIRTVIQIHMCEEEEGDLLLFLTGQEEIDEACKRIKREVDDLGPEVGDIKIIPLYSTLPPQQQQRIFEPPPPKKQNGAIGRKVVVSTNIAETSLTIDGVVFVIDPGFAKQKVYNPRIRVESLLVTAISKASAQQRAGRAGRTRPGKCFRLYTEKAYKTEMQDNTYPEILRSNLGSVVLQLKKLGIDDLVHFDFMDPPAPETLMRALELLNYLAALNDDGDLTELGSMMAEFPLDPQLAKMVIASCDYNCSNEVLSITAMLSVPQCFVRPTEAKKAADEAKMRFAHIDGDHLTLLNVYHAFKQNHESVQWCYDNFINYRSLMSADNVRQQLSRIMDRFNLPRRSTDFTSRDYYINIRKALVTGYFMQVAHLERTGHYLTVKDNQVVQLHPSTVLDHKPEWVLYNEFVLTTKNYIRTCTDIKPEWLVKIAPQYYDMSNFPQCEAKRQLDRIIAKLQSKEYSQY

These are yes or no findings as the source states them, for the method shown. Binding seen in cells or lysates may run through a third protein. A yes stands for co-enrichment or nearness to the bait. Other partners may have been found.

This experiment has as its target GFP-Nup98^1–920 (human) (UniProt P52948). The experiment is described as follows: affinity purification with mass spectrometry; GFP-Nup98 immunoprecipitated with anti-GFP on Protein G Dynabeads from HEK293T whole cell lysate (NP-40 cell lysis buffer, 250 mM NaCl, pH 7.4); SDS-PAGE, in-gel digestion, LC-MS/MS.
As to CRM1 (from UniProt O14980 1-1071), the binding result is listed as “binds”.

In the case of DDX5 (from UniProt P17844 1-614), the binding result was “binds”.

As to DDX17 (from UniProt Q92841 1-729), the binding entry was “binds”.

With DDX21 (from UniProt Q9NR30 1-783), the binding result is listed as “binds”.

Consider DHX15 (from UniProt O43143 1-795), for which the binding result is “binds”.
